In article PMC3169606, “Pub1p C-Terminal RRM Domain Interacts with Tif4631p through a Conserved Region Neighbouring the Pab1p Binding Site” (PLoS ONE, 2011) one finds Kd data, which are given here for one sequence.

The target of this series is T1, Pub1p R12 (RRM1-RRM2) (Saccharomyces cerevisiae) (UniProt P32588).
T1 sequence (looked up): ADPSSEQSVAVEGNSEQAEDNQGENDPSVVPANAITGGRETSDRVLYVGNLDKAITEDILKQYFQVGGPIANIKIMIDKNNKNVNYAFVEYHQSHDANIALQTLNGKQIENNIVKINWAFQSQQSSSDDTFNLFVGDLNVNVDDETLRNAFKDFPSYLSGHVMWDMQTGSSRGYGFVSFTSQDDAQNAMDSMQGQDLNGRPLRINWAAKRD
As to the kind of experiment: NMR titration. The settings on record: fast exchange, negligible shifts at 1:1, 100 µM; 25 mM potassium phosphate pH 7.0 (6.5-7.0 in general NMR methods), 25 mM NaCl, 0.5 mM DTT, 25 C; 100 µM protein, RNA up to 400 µM (R3) or 1:1 (R12); recombinant protein; residues 32-242; protein details: TrxA-6xHis tag removed by TEV.

Protein sequences can lack the tags named with them. Some results are limits rather than exact numbers.

Consider AAAAAAAAAAAAAA [A14], for which the Kd was greater than 100 µM.

Usually Kd stands for the equilibrium constant for the complex coming apart.
